# Experimental data: publication PMC9505842
# Assays:
# [1] = biological target: T1, CCN1 (human (endogenous in LO2)) (UniProt O00622); assay: co-IP; IP with anti-CCN1 antibody (or control IgG) at 4 °C overnight, protein A/G-Sepharose beads 1 h; IB for integrins α5 and β1; LO2 hepatocyte lysates in RIPA buffer, with or without FFA (1 mM) for 24 h
# T1 sequence: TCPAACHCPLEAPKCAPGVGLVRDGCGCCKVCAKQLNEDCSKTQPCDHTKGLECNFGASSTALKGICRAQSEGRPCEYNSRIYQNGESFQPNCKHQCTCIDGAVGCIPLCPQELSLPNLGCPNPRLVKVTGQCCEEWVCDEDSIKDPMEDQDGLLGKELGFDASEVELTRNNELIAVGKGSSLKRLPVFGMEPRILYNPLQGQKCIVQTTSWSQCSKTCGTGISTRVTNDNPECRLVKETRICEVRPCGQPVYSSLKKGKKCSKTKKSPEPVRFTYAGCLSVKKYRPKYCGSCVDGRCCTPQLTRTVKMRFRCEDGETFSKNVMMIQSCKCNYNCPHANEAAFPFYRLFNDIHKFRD
# [2] = biological target: T2, CCN1 (mouse liver) (mouse (endogenous in liver)) (UniProt P18406); assay: co-IP; IP with anti-CCN1 antibody, IB for integrins α5 and β1; whole lysates of mouse livers (legend: db/m and db/db mice, 8 weeks old; text: ND vs. HFD mice)
# T2 sequence: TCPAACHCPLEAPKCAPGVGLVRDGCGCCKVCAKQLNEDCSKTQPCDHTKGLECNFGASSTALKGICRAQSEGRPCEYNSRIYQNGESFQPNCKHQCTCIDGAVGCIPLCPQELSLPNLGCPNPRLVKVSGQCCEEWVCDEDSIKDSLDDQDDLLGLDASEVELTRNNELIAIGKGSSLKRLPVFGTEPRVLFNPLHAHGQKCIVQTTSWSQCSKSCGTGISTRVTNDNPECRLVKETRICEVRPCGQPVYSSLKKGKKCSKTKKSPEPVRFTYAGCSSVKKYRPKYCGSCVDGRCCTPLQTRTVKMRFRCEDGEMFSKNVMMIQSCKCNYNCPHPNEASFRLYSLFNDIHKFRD
binding [1],binding [2],Substance
binds,–,integrin α5β1 (human (endogenous in LO2)) (complex)
–,binds,integrin α5β1 (mouse liver) (complex)

# These are yes or no findings as the source states them, for the method shown. In cells and extracts the contact can be indirect. Binding can be weak; no strength is given.
